Reference: paper PMC10157730
No constants are given. Whether binding was seen depends on the method and setting. Binding seen in cells or lysates may run through a third protein. Some binding calls cover weakened binding; strength is not graded here. Tags and fused reporters may be left off the sequences shown.

Sequences of proteins named here, by UniProt entry; tags and fusion partners are left off.
UniProt P40763: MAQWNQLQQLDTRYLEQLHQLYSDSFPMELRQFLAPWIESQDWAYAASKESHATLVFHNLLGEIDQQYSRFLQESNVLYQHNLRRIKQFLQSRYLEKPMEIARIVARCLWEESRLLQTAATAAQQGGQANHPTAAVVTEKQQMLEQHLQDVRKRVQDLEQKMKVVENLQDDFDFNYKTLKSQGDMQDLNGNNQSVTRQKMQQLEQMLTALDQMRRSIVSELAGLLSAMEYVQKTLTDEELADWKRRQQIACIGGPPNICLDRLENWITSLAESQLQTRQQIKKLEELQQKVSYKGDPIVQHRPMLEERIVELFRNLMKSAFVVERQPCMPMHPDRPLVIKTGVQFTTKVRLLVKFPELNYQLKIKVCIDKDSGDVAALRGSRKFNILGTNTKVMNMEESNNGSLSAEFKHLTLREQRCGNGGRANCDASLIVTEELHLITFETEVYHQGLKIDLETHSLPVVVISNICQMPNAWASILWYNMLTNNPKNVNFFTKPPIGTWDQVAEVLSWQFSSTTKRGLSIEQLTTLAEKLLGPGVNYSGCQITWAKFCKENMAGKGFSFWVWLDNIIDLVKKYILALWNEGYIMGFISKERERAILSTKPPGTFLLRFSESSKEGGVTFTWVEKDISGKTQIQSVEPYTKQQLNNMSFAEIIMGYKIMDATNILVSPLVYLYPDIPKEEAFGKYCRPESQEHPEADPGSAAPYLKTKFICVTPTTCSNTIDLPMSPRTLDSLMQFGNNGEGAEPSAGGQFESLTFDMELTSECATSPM
UniProt P52631: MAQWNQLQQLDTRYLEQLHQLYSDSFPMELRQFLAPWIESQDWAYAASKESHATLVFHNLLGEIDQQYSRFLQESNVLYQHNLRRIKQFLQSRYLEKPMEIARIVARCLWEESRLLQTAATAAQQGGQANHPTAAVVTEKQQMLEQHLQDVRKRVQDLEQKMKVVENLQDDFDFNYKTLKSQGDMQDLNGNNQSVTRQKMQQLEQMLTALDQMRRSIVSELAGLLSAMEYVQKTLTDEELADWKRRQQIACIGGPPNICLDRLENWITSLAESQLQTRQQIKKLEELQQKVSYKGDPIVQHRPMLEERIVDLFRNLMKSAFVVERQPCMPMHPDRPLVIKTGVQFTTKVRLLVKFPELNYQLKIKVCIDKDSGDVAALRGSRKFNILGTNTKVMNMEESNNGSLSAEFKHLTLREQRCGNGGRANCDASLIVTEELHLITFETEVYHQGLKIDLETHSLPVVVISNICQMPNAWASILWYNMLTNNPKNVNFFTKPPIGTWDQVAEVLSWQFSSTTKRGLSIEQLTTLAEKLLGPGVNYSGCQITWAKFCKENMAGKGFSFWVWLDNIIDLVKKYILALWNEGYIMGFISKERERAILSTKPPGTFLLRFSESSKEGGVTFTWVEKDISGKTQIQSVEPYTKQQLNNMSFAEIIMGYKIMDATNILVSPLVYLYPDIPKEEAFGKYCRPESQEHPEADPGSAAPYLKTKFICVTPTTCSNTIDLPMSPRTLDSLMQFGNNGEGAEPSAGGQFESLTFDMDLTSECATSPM

Tests used:
[1] = molecular target: T1, Flag-tagged OTUD1 expressed in HEK-293T cells (UniProt Q5VV17); assay: co-IP; HEK-293T transfected with Flag-tagged OTUD1; lysates immunoprecipitated with anti-OTUD1, STAT3 detected by immunoblotting; IgG control
T1 sequence: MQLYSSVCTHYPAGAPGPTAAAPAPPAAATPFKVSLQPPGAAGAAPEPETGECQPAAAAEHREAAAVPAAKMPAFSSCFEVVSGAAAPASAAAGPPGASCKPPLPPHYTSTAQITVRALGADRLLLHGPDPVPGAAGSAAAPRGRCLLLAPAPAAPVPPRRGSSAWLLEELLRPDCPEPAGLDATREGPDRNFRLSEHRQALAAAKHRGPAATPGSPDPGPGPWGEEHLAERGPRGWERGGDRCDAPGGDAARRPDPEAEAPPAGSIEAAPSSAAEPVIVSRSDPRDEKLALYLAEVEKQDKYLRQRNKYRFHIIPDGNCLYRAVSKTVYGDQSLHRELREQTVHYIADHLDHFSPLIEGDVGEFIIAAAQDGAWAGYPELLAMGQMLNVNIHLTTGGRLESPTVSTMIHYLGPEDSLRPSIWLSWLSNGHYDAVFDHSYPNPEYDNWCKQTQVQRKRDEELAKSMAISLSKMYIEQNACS

[2] = molecular target: T2, Flag-tagged OTUD1 expressed in neonatal rat ventricular myocytes (UniProt Q5VV17); assay: co-IP; NVRMs transfected with Flag-tagged OTUD1; lysates immunoprecipitated with anti-OTUD1, STAT3 detected by immunoblotting; IgG control
T2 sequence: T1 sequence

Substance | binding [1] | binding [2]
STAT3, endogenous in HEK-293T cells (from UniProt P40763 1-770) | binds | 
signal transducer and activator of transcription 3 (STAT3), endogenous in neonatal rat ventricular myocytes (from UniProt P52631 1-770) |  | binds
